Source: PubChem BioAssay AID1259308 (NCATS, 2017)

Purpose: 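Candidate targets for better recombinant protein yield in mammalian cells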 (primary screen)
System: human HEK293 embryonic kidney cells stably expressing firefly luciferase (HEK-CMV-Luc2-Hygro)
Reagent: single siRNA against human genes, 0.8 pmol siRNA per well
Time to read-out: 72 h
Measurement: 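Luciferase light (ONE-Glo) measured on one replicate plate set and viability (CellTiter-Glo) on the other, scaled to a negative control siRNA, with robust z-scores and luciferase per cell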
Reading the numbers: total luciferase, z-score and total luciferase, % of control: higher = more reporter protein produced
Rule for the call: 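An siRNA counts as active if its total luciferase robust z-score exceeds 3; genes with two or more such siRNAs out of three were retested with fresh siRNAs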
Calls: active = raised luciferase; inactive = no rise
The whole screen tested about 59,000 reagents; below is a part drawn at random. About 1,510 of all reagents (2.6%) were called active. 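Calls use total luciferase alone and ignore viability, so some active siRNAs may act by altering cell number.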 Reagents against one gene are numbered here. Not all columns of the deposit are shown.

ADTRP #1: total luciferase, z-score = 0.755; total luciferase, % of control = 96.9; activity call = inactive
ADTRP #2: total luciferase, z-score = 0.537; total luciferase, % of control = 92.6; activity call = inactive
ADTRP #3: total luciferase, z-score = -0.466; total luciferase, % of control = 72.6; activity call = inactive
GDF2 #1: total luciferase, z-score = 0.575; total luciferase, % of control = 93.3; activity call = inactive
GDF2 #2: total luciferase, z-score = 0.246; total luciferase, % of control = 86.8; activity call = inactive
GDF2 #3: total luciferase, z-score = 1.71; total luciferase, % of control = 116; activity call = inactive
TWF1 #1: total luciferase, z-score = -0.427; total luciferase, % of control = 73.4; activity call = inactive
TWF1 #2: total luciferase, z-score = -0.989; total luciferase, % of control = 62.2; activity call = inactive
TWF1 #3: total luciferase, z-score = 2.55; total luciferase, % of control = 133; activity call = inactive

Targets listed so far whose target name begins with T or t:
TWF1 #1: total luciferase, z-score = -0.427; total luciferase, % of control = 73.4; activity call = inactive
TWF1 #2: total luciferase, z-score = -0.989; total luciferase, % of control = 62.2; activity call = inactive
TWF1 #3: total luciferase, z-score = 2.55; total luciferase, % of control = 133; activity call = inactive

The results go on.
FGD1 #1: total luciferase, z-score = -1.1; total luciferase, % of control = 59.9; activity call = inactive
FGD1 #2: total luciferase, z-score = -0.637; total luciferase, % of control = 69.2; activity call = inactive
FGD1 #3: total luciferase, z-score = -0.314; total luciferase, % of control = 75.6; activity call = inactive
GSTO1 #1: total luciferase, z-score = -0.536; total luciferase, % of control = 71.2; activity call = inactive
GSTO1 #2: total luciferase, z-score = -0.903; total luciferase, % of control = 63.9; activity call = inactive
GSTO1 #3: total luciferase, z-score = -0.254; total luciferase, % of control = 76.8; activity call = inactive
HDAC3 #1: total luciferase, z-score = 1.73; total luciferase, % of control = 116; activity call = inactive
HDAC3 #2: total luciferase, z-score = -2.41; total luciferase, % of control = 33.9; activity call = inactive
HDAC3 #3: total luciferase, z-score = -0.635; total luciferase, % of control = 69.3; activity call = inactive
DCHS2 #1: total luciferase, z-score = -0.497; total luciferase, % of control = 72; activity call = inactive
DCHS2 #2: total luciferase, z-score = -0.235; total luciferase, % of control = 77.2; activity call = inactive
DCHS2 #3: total luciferase, z-score = -0.5; total luciferase, % of control = 71.9; activity call = inactive
